{"source": "paper PMC9251544", "molecular_target": "T1, 3×HA-xtMc1r (Xenopus tropicalis melanocortin 1 receptor) (Xenopus tropicalis)", "T1 sequence": "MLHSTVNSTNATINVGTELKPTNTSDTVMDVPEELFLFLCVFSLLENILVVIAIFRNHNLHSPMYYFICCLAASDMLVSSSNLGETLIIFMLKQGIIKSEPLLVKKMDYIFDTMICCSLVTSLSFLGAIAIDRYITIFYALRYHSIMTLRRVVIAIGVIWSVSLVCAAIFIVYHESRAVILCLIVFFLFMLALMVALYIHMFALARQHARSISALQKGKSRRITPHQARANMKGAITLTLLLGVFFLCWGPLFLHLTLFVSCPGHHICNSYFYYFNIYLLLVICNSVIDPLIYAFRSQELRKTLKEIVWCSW", "experiment": "co-IP; 3×HA-xtMc1r and v5-xtMraps-flag co-transfected in HEK293T; lysate incubated with anti-HA rabbit mAb overnight at 4°C, protein A+G agarose beads; blots with anti-HA and anti-FLAG", "note": "These are yes or no findings as the source states them, for the method shown. In cells and extracts the contact can be indirect. Binding calls can cover weak binding; strength is not graded here. Tags and fused reporters may be left off the sequences shown.", "data": [{"substance": "v5-xtMrap1-flag (Xenopus tropicalis melanocortin receptor accessory protein 1)", "values": [{"measurement": "binding", "value": "binds"}]}]}
